Data: the supplement of paper PMC10849652
The other results are listed elsewhere or left out.

The chains behind the UniProt entries cited, without tags or fusion partners. Where a name states a change or a piece, a line headed by the entry shows the natural chain unless it says otherwise.
UniProt Q9HB90, whole entry, looked up: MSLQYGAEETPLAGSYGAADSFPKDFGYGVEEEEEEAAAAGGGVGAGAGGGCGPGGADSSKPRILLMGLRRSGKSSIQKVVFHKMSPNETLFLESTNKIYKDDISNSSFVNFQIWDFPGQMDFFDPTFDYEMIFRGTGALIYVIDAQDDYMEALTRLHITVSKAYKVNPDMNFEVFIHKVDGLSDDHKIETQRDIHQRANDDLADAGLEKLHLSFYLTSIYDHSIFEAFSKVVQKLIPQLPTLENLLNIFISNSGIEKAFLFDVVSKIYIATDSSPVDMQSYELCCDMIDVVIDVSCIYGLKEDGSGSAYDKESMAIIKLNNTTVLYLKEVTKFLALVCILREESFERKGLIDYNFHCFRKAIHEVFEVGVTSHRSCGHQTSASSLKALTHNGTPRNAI
UniProt P04844: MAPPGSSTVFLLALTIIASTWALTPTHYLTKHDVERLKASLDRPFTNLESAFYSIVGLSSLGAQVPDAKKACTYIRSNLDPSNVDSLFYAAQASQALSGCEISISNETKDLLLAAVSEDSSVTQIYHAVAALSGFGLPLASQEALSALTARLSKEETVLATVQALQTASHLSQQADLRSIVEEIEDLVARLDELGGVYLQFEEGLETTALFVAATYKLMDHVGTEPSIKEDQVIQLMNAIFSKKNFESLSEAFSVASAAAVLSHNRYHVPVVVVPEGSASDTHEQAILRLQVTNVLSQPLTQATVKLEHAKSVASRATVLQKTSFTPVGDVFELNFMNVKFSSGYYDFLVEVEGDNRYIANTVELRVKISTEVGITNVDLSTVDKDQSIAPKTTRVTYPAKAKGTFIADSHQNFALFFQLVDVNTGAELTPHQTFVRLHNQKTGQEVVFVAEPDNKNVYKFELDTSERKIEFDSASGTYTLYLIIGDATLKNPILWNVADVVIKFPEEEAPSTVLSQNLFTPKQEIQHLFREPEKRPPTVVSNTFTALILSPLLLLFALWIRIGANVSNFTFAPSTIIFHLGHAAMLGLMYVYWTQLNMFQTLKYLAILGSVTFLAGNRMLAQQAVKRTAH
UniProt O00442: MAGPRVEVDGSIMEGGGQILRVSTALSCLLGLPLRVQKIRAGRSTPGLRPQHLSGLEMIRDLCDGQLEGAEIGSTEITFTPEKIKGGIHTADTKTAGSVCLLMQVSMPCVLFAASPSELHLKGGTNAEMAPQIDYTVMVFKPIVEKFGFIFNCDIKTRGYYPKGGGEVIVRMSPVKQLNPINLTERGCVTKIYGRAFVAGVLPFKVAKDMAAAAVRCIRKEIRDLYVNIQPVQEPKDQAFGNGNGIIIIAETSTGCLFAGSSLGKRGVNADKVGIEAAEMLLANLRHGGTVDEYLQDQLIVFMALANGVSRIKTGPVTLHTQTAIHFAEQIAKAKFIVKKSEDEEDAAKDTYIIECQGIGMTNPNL
UniProt Q92766: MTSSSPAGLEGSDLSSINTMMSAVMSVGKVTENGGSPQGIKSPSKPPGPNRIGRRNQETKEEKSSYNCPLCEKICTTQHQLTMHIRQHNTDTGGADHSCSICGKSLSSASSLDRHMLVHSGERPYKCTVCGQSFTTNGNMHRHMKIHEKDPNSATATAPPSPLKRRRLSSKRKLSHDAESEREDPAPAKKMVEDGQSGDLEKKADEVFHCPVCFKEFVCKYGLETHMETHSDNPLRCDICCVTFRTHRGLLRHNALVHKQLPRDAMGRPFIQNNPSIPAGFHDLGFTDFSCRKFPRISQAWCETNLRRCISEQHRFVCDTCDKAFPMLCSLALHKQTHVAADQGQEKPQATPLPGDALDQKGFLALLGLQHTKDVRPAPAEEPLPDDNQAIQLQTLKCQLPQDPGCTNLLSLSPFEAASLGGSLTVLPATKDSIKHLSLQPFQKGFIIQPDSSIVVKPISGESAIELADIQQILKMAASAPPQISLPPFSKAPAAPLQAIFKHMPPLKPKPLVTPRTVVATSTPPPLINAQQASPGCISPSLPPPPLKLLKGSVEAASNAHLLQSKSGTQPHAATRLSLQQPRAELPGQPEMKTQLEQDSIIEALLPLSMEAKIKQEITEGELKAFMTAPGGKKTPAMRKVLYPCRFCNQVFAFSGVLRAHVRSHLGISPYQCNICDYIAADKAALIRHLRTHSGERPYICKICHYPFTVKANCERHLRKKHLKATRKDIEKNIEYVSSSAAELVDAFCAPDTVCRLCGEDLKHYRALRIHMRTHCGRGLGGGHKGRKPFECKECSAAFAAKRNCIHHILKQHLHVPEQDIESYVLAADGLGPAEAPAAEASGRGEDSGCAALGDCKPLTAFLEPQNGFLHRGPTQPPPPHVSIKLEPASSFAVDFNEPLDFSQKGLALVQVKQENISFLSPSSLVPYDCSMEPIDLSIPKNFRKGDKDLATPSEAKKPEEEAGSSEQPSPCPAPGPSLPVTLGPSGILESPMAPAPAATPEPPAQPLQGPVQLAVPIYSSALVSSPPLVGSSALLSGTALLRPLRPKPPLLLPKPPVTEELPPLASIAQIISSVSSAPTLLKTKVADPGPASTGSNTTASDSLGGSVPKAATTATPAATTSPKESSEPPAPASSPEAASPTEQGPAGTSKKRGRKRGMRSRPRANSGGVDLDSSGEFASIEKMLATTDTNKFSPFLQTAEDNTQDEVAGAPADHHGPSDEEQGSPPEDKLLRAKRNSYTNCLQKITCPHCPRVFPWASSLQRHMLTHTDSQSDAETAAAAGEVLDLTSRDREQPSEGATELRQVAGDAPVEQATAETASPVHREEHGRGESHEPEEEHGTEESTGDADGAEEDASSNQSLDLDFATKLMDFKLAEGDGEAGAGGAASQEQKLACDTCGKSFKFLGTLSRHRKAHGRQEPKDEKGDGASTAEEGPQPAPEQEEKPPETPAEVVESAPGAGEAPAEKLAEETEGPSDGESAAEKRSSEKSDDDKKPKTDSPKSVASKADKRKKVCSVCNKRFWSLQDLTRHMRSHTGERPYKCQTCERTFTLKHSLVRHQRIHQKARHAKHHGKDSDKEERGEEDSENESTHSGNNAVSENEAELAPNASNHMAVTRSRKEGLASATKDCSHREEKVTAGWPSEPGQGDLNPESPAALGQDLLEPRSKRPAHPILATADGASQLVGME
UniProt P05387, whole entry, looked up: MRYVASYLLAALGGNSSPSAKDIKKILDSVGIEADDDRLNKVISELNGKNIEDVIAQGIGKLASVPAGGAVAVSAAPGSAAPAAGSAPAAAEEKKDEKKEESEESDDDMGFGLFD
UniProt P05386, whole entry, looked up: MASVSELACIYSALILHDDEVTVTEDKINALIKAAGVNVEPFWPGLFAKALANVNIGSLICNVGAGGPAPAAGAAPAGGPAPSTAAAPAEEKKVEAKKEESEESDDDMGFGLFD
UniProt Q9Y3B9: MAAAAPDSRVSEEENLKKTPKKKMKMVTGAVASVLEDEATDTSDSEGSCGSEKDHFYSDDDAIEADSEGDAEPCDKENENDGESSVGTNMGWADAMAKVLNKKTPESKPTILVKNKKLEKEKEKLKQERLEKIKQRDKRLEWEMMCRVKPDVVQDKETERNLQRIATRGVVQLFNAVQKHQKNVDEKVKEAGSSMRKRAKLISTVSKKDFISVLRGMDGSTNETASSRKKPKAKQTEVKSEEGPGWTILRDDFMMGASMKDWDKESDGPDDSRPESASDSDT
UniProt Q9BUL9: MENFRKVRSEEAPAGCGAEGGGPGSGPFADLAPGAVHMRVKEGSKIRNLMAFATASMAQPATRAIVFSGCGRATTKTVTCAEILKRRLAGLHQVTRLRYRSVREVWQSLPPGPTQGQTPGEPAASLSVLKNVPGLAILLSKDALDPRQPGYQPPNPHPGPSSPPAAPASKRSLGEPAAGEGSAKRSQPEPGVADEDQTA

How the values were obtained:
Assay in all cases: log2 fold change, soluble protein after heating vs DMSO (PISA); higher = thermal stabilisation; K562 lysate, 10 uM; active = over 0.2 and 3.5 SD of the protein, either way, in both replicates (recomputed)
[1] = compound: C#Cc1cccc(Nc2ncnc3cc(OCCOC)c(OCCOC)cc23)c1 [erlotinib]
Summary of the method: (§1)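 Values give the log-two fold change in thermal stability against solvent controls, from duplicates. Crude K562 extract at 1 mg/mL protein, made by dounce homogenisation in PBS pH 7.4 with 1 mM MgCl2, was treated with 10 μM compound for 30 min. After 3 min heating across 48°C-58°C, aliquots were pooled, adjusted to 0.5% NP-40 at 4°C and centrifuged at 21,000xg for 90 min. The supernatant was measured by TMTpro 16plex LC-MS/MS with channel sums equalised.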

[2] = compound: C/C(=N\NC(=O)C1=CC(=CC=C1)S(=O)(=O)N2CCOCC2)/C3=C(C=CC(=C3)Cl)O
Summary of the method: as §1

[3] = compound: C1=CC(=CC=C1C2=NC3=C(N2)C=C(C=C3)C(=O)N)OC4=CC=C(C=C4)Cl
Summary of the method: as §1

[4] = compound: C1=CC2=C(C=CC(=C2)/C=C\3/C(=O)NC(=NCC4=CC=CS4)S3)N=C1
Summary of the method: as §1

[5] = compound: C1=CC2=NC=CN=C2C=C1/C=C/3\C(=O)NC(=O)S3
Summary of the method: as §1

[6] = compound: C1=CC=C(C=C1)C2=NC(=C(N2)C3=CC=NC=C3)C4=CC(=C(C=C4)Cl)O
Summary of the method: as §1

[7] = compound: C1=CC=C2C(=C1)C3=NNC4=CC=CC(=C43)C2=O
Summary of the method: as §1

[8] = compound: C1CCN(C1)C(=O)NC2=CC=CC(=C2)NC3=NC=C(C(=N3)NCCC4=CN=CN4)Br
Summary of the method: as §1

[9] = compound: C1CN(CCC1(CC2=CC=C(C=C2)Cl)N)C3=NC=NC4=C3C=CN4
Summary of the method: as §1

[10] = compound: C1COCCN1CCN2C3=CC=CC=C3N=C2NC(=O)C4=CC(=CC=C4)[N+](=O)[O-] [IRAK-1-4 Inhibitor I]
Summary of the method: as §1

[11] = compound: C=CC(=O)N1CCC[C@@H](n2nc(-c3ccc(Oc4ccccc4)cc3)c3c(N)ncnc32)C1 [ibrutinib]
Summary of the method: as §1

[12] = compound: CC(=O)c1cnc2ccc(-c3cc(Cl)c(O)c(Cl)c3)nc2c1N[C@H]1CC[C@H](CN(C)C)CC1
Summary of the method: as §1

[13] = compound: CC(C)(C)Cn1c(N)nc2ccc(-c3[nH]c(C(C)(C)C)nc3-c3ccc(F)cc3)nc21 [ralimetinib]
Summary of the method: as §1

[14] = compound: CC(C)(O)CC(=O)NCCn1ccc2ncnc(Nc3ccc(Oc4cccc(C(F)(F)F)c4)c(Cl)c3)c21
Summary of the method: as §1

[15] = compound: CC(C)C1=C2N=C(C=C(N2N=C1)NCC3=CC=CC=C3)NCCCCCCN
Summary of the method: as §1

[16] = compound: CC1=C(C(CC(=O)N1)C2=CC=C(C=C2)C(F)(F)F)C(=O)NC3=C(C=C4C(=C3)C=NN4)F
Summary of the method: as §1

[17] = compound: CC1=C(C2=C(C=C1)C(=O)C3=CC=CC=C3N2CCCN)C
Summary of the method: as §1

[18] = compound: CC1=C(C=C(C=C1)NC(=O)C2=CC(=CC=C2)C(C)(C)C#N)NC3=CC4=C(C=C3)N=CN(C4=O)C
Summary of the method: as §1

[19] = compound: CC1=C(C=C(C=C1)NC(=O)C2=CC(=CC=C2)N(C)C)NC(=O)C3=CC=C(C=C3)O
Summary of the method: as §1

[20] = compound: CC1=CC=C(C=C1)SC2=C3C=C(SC3=CN=C2)C(=O)N
Summary of the method: as §1

Measured: log2 fold change

RRAGC (UniProt Q9HB90)
inactive: [1] -0.017 | [2] -0.062 | [3] 0.028 | [4] 0.007 | [5] -0.014 | [6] -0.032 | [7] -0.018 | [8] 0.011 | [9] -0.004 | [10] 0.066 | [11] -0.014 | [12] 0.014 | [13] -0.004 | [14] -0.046 | [15] 0 | [16] 0.019 | [17] 0.038 | [18] 0.019 | [19] -0.016 | [20] -0.011

RPS15 (UniProt P62841)
inactive: [1] -0.023 | [2] 0.061 | [3] 0.016 | [4] 0.005 | [5] -0.014 | [6] -0.024 | [7] 0.003 | [8] 0.047 | [9] 0.015 | [10] 0.039 | [11] 0.033 | [12] -0.013 | [13] 0.065 | [14] -0.064 | [15] 0.004 | [16] -0.005 | [17] -0.066 | [18] 0.021 | [19] 0.028 | [20] 0.032

RPLP0 (UniProt P05388)
inactive: [1] 0.004 | [2] -0.018 | [3] -0.045 | [4] -0.008 | [5] -0.002 | [6] 0.028 | [7] 0.013 | [8] 0.026 | [9] 0.026 | [10] 0.035 | [11] 0.003 | [12] -0.019 | [13] -0.007 | [14] -0.019 | [15] -0.016 | [16] -0.016 | [17] -0.045 | [18] 0.032 | [19] -0.005 | [20] 0.001

RPN2 (UniProt P04844)
inactive: [1] 0 | [2] 0.014 | [3] -0.055 | [4] 0.022 | [5] 0.021 | [6] 0 | [7] -0.049 | [8] -0.007 | [9] 0.006 | [10] 0.007 | [11] -0.008 | [12] 0.014 | [13] -0.004 | [14] -0.035 | [15] -0.021 | [16] 0.008 | [17] 0.021 | [18] -0.011 | [19] -0.015 | [20] -0.017

RPS6 (UniProt P62753)
inactive: [1] -0.033 | [2] -0.034 | [3] -0.045 | [4] 0.003 | [5] -0.004 | [6] -0.01 | [7] -0.015 | [8] 0.014 | [9] -0.024 | [10] 0.006 | [11] -0.039 | [12] -0.021 | [13] -0.04 | [14] -0.024 | [15] -0.016 | [16] 0 | [17] -0.063 | [18] -0.022 | [19] 0.003 | [20] 0.023

RPS21 (UniProt P63220)
inactive: [1] -0.019 | [2] -0.013 | [3] -0.004 | [4] -0.011 | [5] -0.012 | [6] -0.017 | [7] 0.029 | [8] 0.009 | [9] -0.054 | [10] -0.017 | [11] -0.002 | [12] 0.018 | [13] 0.015 | [14] 0.012 | [15] -0.025 | [16] -0.075 | [17] 0.053 | [18] -0.021 | [19] -0.013 | [20] 0.001

2 consecutive records out of the list so far:
RPN2 (UniProt P04844)
inactive: [1] 0 | [2] 0.014 | [3] -0.055 | [4] 0.022 | [5] 0.021 | [6] 0 | [7] -0.049 | [8] -0.007 | [9] 0.006 | [10] 0.007 | [11] -0.008 | [12] 0.014 | [13] -0.004 | [14] -0.035 | [15] -0.021 | [16] 0.008 | [17] 0.021 | [18] -0.011 | [19] -0.015 | [20] -0.017

RPS6 (UniProt P62753)
inactive: [1] -0.033 | [2] -0.034 | [3] -0.045 | [4] 0.003 | [5] -0.004 | [6] -0.01 | [7] -0.015 | [8] 0.014 | [9] -0.024 | [10] 0.006 | [11] -0.039 | [12] -0.021 | [13] -0.04 | [14] -0.024 | [15] -0.016 | [16] 0 | [17] -0.063 | [18] -0.022 | [19] 0.003 | [20] 0.023

Going on with the list:

RTCA (UniProt O00442)
inactive: [1] -0.026 | [2] 0.007 | [3] 0.034 | [4] -0.026 | [5] -0.006 | [6] 0.021 | [7] -0.013 | [8] -0.026 | [9] 0 | [10] 0.015 | [11] 0.005 | [12] -0.001 | [13] 0.021 | [14] -0.04 | [15] 0.016 | [16] -0.018 | [17] 0.005 | [18] 0.047 | [19] 0.012 | [20] -0.008

RPS8 (UniProt P62241)
inactive: [1] -0.011 | [2] 0.105 | [3] 0.001 | [4] 0.028 | [5] -0.041 | [6] 0.007 | [7] 0.059 | [8] 0.022 | [9] -0.016 | [10] -0.001 | [11] -0.023 | [12] 0.002 | [13] -0.032 | [14] -0.003 | [15] 0.017 | [16] -0.008 | [17] -0.064 | [18] -0.014 | [19] -0.004 | [20] 0.05

RREB1 isoform 2 (UniProt Q92766)
inactive: [1] -0.015 | [2] -0.257 | [3] -0.02 | [4] -0.057 | [5] -0.123 | [6] -0.018 | [7] 0.063 | [8] -0.01 | [9] 0.06 | [10] 0 | [11] 0.056 | [12] 0.13 | [13] 0.01 | [14] -0.061 | [15] -0.078 | [16] -0.003 | [17] 0.031 | [18] 0.073 | [19] 0.042 | [20] 0.103

RPLP2 (UniProt P05387)
inactive: [1] -0.008 | [2] -0.032 | [3] -0.038 | [4] 0.03 | [5] 0.025 | [6] 0.028 | [7] -0.012 | [8] 0.047 | [9] 0.002 | [10] 0.004 | [11] 0.066 | [12] -0.026 | [13] -0.006 | [14] -0.015 | [15] 0.014 | [16] -0.016 | [17] -0.025 | [18] 0.006 | [19] 0.016 | [20] 0.043

RPLP1 (UniProt P05386)
inactive: [1] 0.006 | [2] 0.029 | [3] -0.008 | [4] 0.009 | [5] -0.023 | [6] 0.004 | [7] 0.034 | [8] 0.013 | [9] 0.014 | [10] 0.023 | [11] 0.041 | [12] -0.087 | [13] 0.008 | [14] -0.097 | [15] 0.043 | [16] -0.022 | [17] 0.011 | [18] 0.049 | [19] 0.004 | [20] 0.118

RPS14 (UniProt P62263)
inactive: [1] -0.021 | [2] 0.057 | [3] -0.013 | [4] -0.016 | [5] -0.051 | [6] -0.006 | [7] 0.011 | [8] 0.004 | [9] -0.017 | [10] 0.013 | [11] -0.003 | [12] -0.016 | [13] 0.011 | [14] -0.021 | [15] 0.004 | [16] 0.001 | [17] -0.084 | [18] -0.022 | [19] 0.009 | [20] 0.018

RPS28 (UniProt P62857)
inactive: [1] -0.042 | [2] -0.213 | [3] 0.015 | [4] -0.061 | [5] -0.043 | [6] -0.011 | [7] -0.012 | [8] 0.046 | [9] -0.043 | [10] -0.024 | [11] -0.013 | [12] 0.006 | [13] 0.007 | [14] -0.022 | [15] -0.002 | [16] -0.016 | [17] 0.015 | [18] -0.045 | [19] 0.003 | [20] -0.065

RPS11 (UniProt P62280)
inactive: [1] -0.016 | [2] -0.036 | [3] 0.001 | [4] 0.001 | [5] -0.027 | [6] 0.011 | [7] 0.004 | [8] -0.024 | [9] -0.036 | [10] -0.006 | [11] -0.065 | [12] -0.019 | [13] -0.028 | [14] 0.022 | [15] -0.006 | [16] -0.027 | [17] -0.077 | [18] -0.039 | [19] 0.005 | [20] 0.035

RRP15 (UniProt Q9Y3B9)
inactive: [1] -0.06 | [2] -0.416 | [3] 0.007 | [4] -0.022 | [5] -0.029 | [6] 0.009 | [7] 0.026 | [8] 0.04 | [9] 0.006 | [10] -0.038 | [11] 0.1 | [12] 0.007 | [13] 0.007 | [14] 0.007 | [15] -0.018 | [16] -0.026 | [17] -0.001 | [18] 0.045 | [19] -0.018 | [20] -0.053

RPP25 (UniProt Q9BUL9)
inactive: [1] -0.112 | [2] -0.066 | [3] -0.026 | [4] -0.017 | [5] 0.007 | [6] 0.07 | [7] 0.023 | [8] 0.109 | [9] -0.006 | [10] -0.03 | [11] 0.022 | [12] -0.036 | [13] 0.039 | [14] -0.063 | [15] 0 | [16] 0.027 | [17] 0.001 | [18] -0.033 | [19] 0.037 | [20] -0.028
